# PubChem BioAssay AID1259254 | NCATS – 2017
# Screen: 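Genome-wide screen for genes that prevent DNA re-replication in cancer cells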 (primary screen)
# Cells: human HCT116 colorectal cancer cells
# Reagent: single siRNA against human genes
# Time to read-out: 3 days
# Detection: 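Nuclei stained with Hoechst and imaged; cell-cycle phase assigned by DNA content; G2 share scaled per plate, non-targeting siRNA 0%, GMNN siRNA 100%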
# Direction: G2 robust z-score and G2 cells, % of GMNN control: higher = more G2 cells, more excess DNA replication; raw share of cells in G2: higher = larger share of cells with G2 DNA content
# Active means: 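An siRNA counts as active if its G2 robust z-score lies at least 5 MADs above the screen median; here such calls match roughly 38% of GMNN control or more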
# Shown is one part, drawn at random, of about 59,000 reagents. Over the whole deposit, about 1,550 (2.6%) got an active call. 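G2 share is only a proxy for re-replication; each gene was hit by three separate siRNAs, and active genes were retested.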 The raw values are shown without normalisation. The numbers tell different reagents against one gene apart. No sequences are given here. The record does not give: the amount of reagent.
The opening 6 records as a preview:
gene,siRNA no.,G2 robust z-score,"G2 cells, % of GMNN control",raw share of cells in G2 (%),activity call
EIF1AX (eukaryotic translation initiation factor 1A X-linked),1,1.84,15.9,11,inactive
EIF1AX (eukaryotic translation initiation factor 1A X-linked),2,0.246,4.7,5.33,inactive
EIF1AX (eukaryotic translation initiation factor 1A X-linked),3,7.28,54.2,25.9,active
TINCR (TINCR ubiquitin domain containing),1,-0.645,-1.57,2.59,inactive
TINCR (TINCR ubiquitin domain containing),2,0.177,4.21,4.54,inactive
TINCR (TINCR ubiquitin domain containing),3,0.359,5.5,5.57,inactive

Main list, repeating the preview:
gene,siRNA no.,G2 robust z-score,"G2 cells, % of GMNN control",raw share of cells in G2 (%),activity call
EIF1AX (eukaryotic translation initiation factor 1A X-linked),1,1.84,15.9,11,inactive
EIF1AX (eukaryotic translation initiation factor 1A X-linked),2,0.246,4.7,5.33,inactive
EIF1AX (eukaryotic translation initiation factor 1A X-linked),3,7.28,54.2,25.9,active
TINCR (TINCR ubiquitin domain containing),1,-0.645,-1.57,2.59,inactive
TINCR (TINCR ubiquitin domain containing),2,0.177,4.21,4.54,inactive
TINCR (TINCR ubiquitin domain containing),3,0.359,5.5,5.57,inactive
ULBP2 (UL16 binding protein 2),1,-0.433,-0.0818,4.41,inactive
ULBP2 (UL16 binding protein 2),2,0.436,6.03,6.94,inactive
ULBP2 (UL16 binding protein 2),3,1.29,12,5.67,inactive
KIF11 (kinesin family member 11),1,11.4,83.1,37.3,active
KIF11 (kinesin family member 11),2,11.4,83.2,34.7,active
KIF11 (kinesin family member 11),3,18.3,131,52.8,active
TMEM184A (transmembrane protein 184A),1,1.03,10.2,7.28,inactive
TMEM184A (transmembrane protein 184A),2,0.693,7.85,5.82,inactive
TMEM184A (transmembrane protein 184A),3,-0.438,-0.118,3.16,inactive
CZIB (CXXC motif containing zinc binding protein),1,-0.829,-2.86,2.58,inactive
CZIB (CXXC motif containing zinc binding protein),2,8.53,63,30.8,active
CZIB (CXXC motif containing zinc binding protein),3,-0.585,-1.15,2.81,inactive
TYW1 (tRNA-yW synthesizing protein 1 homolog),1,1.94,16.6,11.3,inactive
TYW1 (tRNA-yW synthesizing protein 1 homolog),2,1.21,11.4,11.4,inactive
TYW1 (tRNA-yW synthesizing protein 1 homolog),3,-0.701,-1.97,3.73,inactive
UBTF (upstream binding transcription factor),1,0.934,9.54,7.62,inactive
UBTF (upstream binding transcription factor),2,-0.143,1.96,6.43,inactive
UBTF (upstream binding transcription factor),3,-0.524,-0.718,3.99,inactive
SDHAF3 (succinate dehydrogenase complex assembly factor 3),1,-0.637,-1.51,3.75,inactive
SDHAF3 (succinate dehydrogenase complex assembly factor 3),2,-0.488,-0.465,4.24,inactive
SDHAF3 (succinate dehydrogenase complex assembly factor 3),3,-0.354,0.479,3.18,inactive
SLC30A3,1,0.0357,3.22,5.46,inactive
SLC30A3,2,0.739,8.16,7.16,inactive
SLC30A3,3,3.48,27.4,17.2,inactive
NR2F2-AS1 (NR2F2 antisense RNA 1),1,-0.942,-3.66,2.08,inactive
NR2F2-AS1 (NR2F2 antisense RNA 1),2,-0.467,-0.317,3.52,inactive
NR2F2-AS1 (NR2F2 antisense RNA 1),3,-0.0386,2.7,4.24,inactive
CA4 (carbonic anhydrase 4),1,-0.925,-3.54,3.51,inactive
CA4 (carbonic anhydrase 4),2,1.98,16.9,11.1,inactive
CA4 (carbonic anhydrase 4),3,-0.117,2.14,4.79,inactive
"ANP32CP (acidic nuclear phosphoprotein 32 family member C, pseudogene)",1,-0.0406,2.68,4.3,inactive
"ANP32CP (acidic nuclear phosphoprotein 32 family member C, pseudogene)",2,5.1,38.8,17.4,active
"ANP32CP (acidic nuclear phosphoprotein 32 family member C, pseudogene)",3,0.152,4.03,5.52,inactive
"MAL2 (mal, T cell differentiation protein 2)",1,0.276,4.91,7.95,inactive
"MAL2 (mal, T cell differentiation protein 2)",2,0.831,8.82,8.75,inactive
"MAL2 (mal, T cell differentiation protein 2)",3,0.55,6.84,7.06,inactive
SLC26A8,1,-1.01,-4.1,3.2,inactive
SLC26A8,2,-0.338,0.588,5.94,inactive
SLC26A8,3,-0.652,-1.62,3.87,inactive
BRD7 (bromodomain containing 7),1,0.194,4.33,4.62,inactive
BRD7 (bromodomain containing 7),2,0.0633,3.41,5.16,inactive
BRD7 (bromodomain containing 7),3,-0.131,2.05,5.32,inactive
TRAFD1 (TRAF-type zinc finger domain containing 1),1,1.72,15.1,10.9,inactive
TRAFD1 (TRAF-type zinc finger domain containing 1),2,-0.162,1.83,4.89,inactive
TRAFD1 (TRAF-type zinc finger domain containing 1),3,0.528,6.68,5.67,inactive
CHRM2 (cholinergic receptor muscarinic 2),1,-1.14,-5.03,4.04,inactive
CHRM2 (cholinergic receptor muscarinic 2),2,0.56,6.9,6.93,inactive
CHRM2 (cholinergic receptor muscarinic 2),3,0.0578,3.37,4.3,inactive
AK7 (adenylate kinase 7),1,-0.526,-0.734,5.36,inactive
AK7 (adenylate kinase 7),2,0.0883,3.59,6.5,inactive
AK7 (adenylate kinase 7),3,0.178,4.22,5.03,inactive
"ST13P8 (ST13, Hsp70 interacting protein pseudogene 8)",1,3.98,31,16.7,inactive
"ST13P8 (ST13, Hsp70 interacting protein pseudogene 8)",2,0.25,4.72,5.61,inactive
"ST13P8 (ST13, Hsp70 interacting protein pseudogene 8)",3,-0.559,-0.965,2.84,inactive
ATG9A (autophagy related 9A),1,1.41,12.9,10.2,inactive
ATG9A (autophagy related 9A),2,1.16,11.1,9.6,inactive
ATG9A (autophagy related 9A),3,-0.63,-1.46,2.31,inactive
"RAB1B (RAB1B, member RAS oncogene family)",1,-0.977,-3.91,3.8,inactive
"RAB1B (RAB1B, member RAS oncogene family)",2,-1.06,-4.5,3.12,inactive
"RAB1B (RAB1B, member RAS oncogene family)",3,3.96,30.8,15.3,inactive
KRTAP17-1 (keratin associated protein 17-1),1,0.477,6.32,4.32,inactive
KRTAP17-1 (keratin associated protein 17-1),2,-0.154,1.88,4.73,inactive
KRTAP17-1 (keratin associated protein 17-1),3,0.967,9.77,6.35,inactive
TMED9 (transmembrane p24 trafficking protein 9),1,0.0572,3.37,4.81,inactive
TMED9 (transmembrane p24 trafficking protein 9),2,-0.398,0.165,4.34,inactive
TMED9 (transmembrane p24 trafficking protein 9),3,0.554,6.87,5.46,inactive
MST1 (macrophage stimulating 1),1,2.95,23.7,13.8,inactive
MST1 (macrophage stimulating 1),2,-0.747,-2.29,4.1,inactive
MST1 (macrophage stimulating 1),3,-0.727,-2.15,3.11,inactive
RDX (radixin),1,-0.495,-0.518,4.8,inactive
RDX (radixin),2,-0.995,-4.03,3.14,inactive
RDX (radixin),3,0.0623,3.41,5.28,inactive
IMPG1 (interphotoreceptor matrix proteoglycan 1),1,-1.3,-6.15,2.81,inactive
IMPG1 (interphotoreceptor matrix proteoglycan 1),2,-0.114,2.17,5,inactive
IMPG1 (interphotoreceptor matrix proteoglycan 1),3,-1.74,-9.28,2.15,inactive
SSX3 (SSX family member 3),1,0.28,4.94,8.42,inactive
SSX3 (SSX family member 3),2,-0.401,0.145,5.76,inactive
SSX3 (SSX family member 3),3,-1.02,-4.24,2.47,inactive
CALM3 (calmodulin 3),1,-0.675,-1.79,3.4,inactive
CALM3 (calmodulin 3),2,0.0118,3.05,6.62,inactive
CALM3 (calmodulin 3),3,-0.682,-1.83,4.79,inactive
